Measured values: the supplement of paper PMC10849652
The other results are listed elsewhere or left out.

The chains behind the UniProt entries cited, without tags or fusion partners. Where a name states a change or a piece, a line headed by the entry shows the natural chain unless it says otherwise.
UniProt Q9BUF5, whole entry, looked up: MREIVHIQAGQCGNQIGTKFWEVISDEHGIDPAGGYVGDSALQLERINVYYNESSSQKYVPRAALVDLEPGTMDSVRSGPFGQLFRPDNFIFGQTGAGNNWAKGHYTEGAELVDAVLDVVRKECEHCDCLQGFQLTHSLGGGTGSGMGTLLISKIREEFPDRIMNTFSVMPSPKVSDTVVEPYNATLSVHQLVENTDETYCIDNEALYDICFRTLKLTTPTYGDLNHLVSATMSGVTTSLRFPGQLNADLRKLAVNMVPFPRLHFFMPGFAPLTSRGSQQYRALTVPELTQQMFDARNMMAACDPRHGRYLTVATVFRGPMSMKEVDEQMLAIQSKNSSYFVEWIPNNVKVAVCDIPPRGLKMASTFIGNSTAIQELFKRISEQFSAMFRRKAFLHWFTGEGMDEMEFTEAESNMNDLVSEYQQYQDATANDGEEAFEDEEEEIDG
UniProt Q04323: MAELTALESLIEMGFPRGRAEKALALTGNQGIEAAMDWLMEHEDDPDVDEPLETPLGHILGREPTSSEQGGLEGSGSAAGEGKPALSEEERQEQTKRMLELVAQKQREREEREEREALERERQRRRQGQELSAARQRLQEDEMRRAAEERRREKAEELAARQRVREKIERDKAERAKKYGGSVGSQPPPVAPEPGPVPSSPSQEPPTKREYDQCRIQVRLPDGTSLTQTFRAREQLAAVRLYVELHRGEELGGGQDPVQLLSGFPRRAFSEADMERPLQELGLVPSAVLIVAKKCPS
UniProt Q9BRA2: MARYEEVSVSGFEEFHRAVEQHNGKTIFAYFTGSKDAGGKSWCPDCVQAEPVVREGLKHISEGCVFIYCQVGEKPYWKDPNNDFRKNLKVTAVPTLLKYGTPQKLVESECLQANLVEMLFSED
UniProt P68371, whole entry, looked up: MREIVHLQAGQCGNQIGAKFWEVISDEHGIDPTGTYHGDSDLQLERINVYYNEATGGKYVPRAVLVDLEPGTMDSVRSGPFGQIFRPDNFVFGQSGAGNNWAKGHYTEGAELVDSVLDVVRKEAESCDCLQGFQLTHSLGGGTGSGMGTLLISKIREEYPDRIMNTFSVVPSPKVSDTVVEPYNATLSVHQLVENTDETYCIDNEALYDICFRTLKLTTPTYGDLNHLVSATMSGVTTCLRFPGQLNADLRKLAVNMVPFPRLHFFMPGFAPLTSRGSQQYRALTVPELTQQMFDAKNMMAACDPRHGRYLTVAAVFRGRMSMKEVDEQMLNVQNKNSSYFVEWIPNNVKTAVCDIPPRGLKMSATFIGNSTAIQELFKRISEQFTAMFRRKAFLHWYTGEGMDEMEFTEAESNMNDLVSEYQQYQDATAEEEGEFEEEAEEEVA
UniProt Q9BSL1: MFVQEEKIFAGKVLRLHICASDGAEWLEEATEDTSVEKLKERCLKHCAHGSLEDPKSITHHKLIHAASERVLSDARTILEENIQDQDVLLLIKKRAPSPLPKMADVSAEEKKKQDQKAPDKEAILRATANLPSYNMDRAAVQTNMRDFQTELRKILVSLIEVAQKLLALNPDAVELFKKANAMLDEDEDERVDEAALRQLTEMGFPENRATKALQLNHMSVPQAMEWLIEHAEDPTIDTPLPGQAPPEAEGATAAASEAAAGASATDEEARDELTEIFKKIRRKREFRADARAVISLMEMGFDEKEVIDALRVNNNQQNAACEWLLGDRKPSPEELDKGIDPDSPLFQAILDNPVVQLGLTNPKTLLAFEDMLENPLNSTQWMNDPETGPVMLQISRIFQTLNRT
UniProt O95071: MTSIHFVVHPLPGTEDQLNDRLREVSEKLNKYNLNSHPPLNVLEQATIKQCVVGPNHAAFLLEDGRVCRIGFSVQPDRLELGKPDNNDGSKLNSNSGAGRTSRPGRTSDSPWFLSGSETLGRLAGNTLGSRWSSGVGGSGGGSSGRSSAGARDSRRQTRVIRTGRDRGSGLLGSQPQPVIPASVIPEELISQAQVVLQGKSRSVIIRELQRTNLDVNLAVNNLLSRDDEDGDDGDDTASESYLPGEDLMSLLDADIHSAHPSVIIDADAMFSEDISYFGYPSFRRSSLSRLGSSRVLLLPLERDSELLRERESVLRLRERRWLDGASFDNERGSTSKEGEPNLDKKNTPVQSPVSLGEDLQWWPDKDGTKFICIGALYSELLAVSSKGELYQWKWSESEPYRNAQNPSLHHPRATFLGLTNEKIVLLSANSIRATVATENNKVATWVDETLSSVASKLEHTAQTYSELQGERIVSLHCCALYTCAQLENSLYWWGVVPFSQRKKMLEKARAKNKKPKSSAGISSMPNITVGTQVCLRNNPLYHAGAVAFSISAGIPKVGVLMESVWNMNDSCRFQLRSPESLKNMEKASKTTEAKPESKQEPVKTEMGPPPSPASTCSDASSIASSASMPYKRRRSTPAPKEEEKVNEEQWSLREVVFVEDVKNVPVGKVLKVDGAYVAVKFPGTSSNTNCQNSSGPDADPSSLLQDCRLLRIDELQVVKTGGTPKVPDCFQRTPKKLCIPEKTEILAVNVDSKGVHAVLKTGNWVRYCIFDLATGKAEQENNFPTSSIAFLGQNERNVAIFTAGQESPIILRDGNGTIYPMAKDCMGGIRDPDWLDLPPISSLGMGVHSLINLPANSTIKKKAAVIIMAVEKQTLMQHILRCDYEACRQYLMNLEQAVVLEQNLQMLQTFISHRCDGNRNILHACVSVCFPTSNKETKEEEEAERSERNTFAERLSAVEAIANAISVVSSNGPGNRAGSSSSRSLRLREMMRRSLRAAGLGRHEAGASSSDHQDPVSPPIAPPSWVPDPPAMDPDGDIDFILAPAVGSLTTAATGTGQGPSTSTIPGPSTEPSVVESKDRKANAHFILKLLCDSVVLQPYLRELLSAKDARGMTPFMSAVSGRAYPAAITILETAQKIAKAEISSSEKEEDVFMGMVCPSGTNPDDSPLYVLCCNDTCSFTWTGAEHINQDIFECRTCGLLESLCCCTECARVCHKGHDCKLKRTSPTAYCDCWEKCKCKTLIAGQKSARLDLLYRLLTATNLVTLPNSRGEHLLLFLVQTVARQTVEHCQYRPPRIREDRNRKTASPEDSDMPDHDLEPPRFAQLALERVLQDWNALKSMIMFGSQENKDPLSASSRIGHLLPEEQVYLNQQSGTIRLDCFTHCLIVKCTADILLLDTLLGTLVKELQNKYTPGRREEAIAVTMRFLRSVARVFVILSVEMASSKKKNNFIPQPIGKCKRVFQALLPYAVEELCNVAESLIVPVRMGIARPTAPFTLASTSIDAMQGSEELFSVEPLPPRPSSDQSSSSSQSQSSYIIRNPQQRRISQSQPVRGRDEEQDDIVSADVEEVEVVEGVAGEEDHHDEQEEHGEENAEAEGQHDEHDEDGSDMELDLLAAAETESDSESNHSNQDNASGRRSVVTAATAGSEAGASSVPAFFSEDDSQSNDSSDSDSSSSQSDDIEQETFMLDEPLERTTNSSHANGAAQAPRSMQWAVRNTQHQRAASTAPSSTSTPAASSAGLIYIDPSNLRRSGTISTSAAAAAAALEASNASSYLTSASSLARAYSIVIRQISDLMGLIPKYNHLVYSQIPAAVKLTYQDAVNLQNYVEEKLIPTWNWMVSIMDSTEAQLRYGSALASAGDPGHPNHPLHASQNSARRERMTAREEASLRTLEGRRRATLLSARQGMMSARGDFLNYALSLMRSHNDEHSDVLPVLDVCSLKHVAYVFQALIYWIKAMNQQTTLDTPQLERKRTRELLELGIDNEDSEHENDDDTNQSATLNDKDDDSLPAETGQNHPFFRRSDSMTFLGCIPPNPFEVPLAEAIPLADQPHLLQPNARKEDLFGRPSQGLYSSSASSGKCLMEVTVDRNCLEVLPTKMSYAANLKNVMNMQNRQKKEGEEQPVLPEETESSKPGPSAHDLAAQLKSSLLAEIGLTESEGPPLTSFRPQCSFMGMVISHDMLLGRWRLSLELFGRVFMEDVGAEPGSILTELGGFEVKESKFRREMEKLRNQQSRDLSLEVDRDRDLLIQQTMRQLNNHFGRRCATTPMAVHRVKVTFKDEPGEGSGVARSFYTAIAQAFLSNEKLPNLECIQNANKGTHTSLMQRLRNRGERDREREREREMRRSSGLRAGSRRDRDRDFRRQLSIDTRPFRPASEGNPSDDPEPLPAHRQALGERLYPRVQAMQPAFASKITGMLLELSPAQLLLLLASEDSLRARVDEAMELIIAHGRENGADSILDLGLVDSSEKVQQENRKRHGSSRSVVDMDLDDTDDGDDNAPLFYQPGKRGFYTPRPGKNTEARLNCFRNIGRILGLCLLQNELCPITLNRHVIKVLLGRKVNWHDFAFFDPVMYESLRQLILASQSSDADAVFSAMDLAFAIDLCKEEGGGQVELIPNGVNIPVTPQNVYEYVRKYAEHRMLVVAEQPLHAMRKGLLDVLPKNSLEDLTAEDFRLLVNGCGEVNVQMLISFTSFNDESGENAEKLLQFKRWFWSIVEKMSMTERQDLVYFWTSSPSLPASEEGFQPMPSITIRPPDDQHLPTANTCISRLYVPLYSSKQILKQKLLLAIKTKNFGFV
UniProt P68036, whole entry, looked up: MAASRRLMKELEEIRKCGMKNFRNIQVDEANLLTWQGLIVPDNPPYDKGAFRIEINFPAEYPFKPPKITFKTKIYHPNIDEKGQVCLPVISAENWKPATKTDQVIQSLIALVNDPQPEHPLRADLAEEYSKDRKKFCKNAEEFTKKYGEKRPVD
UniProt Q99757: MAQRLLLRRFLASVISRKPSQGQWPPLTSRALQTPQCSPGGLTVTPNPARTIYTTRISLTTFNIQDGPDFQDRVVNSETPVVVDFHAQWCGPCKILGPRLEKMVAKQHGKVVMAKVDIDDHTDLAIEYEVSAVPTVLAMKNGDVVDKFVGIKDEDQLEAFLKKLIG
UniProt Q9Y5K5, whole entry, looked up: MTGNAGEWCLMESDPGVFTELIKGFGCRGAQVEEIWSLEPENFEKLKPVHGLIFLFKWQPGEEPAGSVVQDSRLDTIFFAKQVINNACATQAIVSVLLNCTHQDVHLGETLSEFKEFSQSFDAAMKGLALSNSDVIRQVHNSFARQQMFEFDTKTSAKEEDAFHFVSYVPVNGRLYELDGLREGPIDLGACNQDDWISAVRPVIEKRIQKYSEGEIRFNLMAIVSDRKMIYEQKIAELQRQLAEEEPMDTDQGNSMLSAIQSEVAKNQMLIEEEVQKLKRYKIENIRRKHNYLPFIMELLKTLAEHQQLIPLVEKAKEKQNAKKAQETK
UniProt Q9UMX0, whole entry, looked up: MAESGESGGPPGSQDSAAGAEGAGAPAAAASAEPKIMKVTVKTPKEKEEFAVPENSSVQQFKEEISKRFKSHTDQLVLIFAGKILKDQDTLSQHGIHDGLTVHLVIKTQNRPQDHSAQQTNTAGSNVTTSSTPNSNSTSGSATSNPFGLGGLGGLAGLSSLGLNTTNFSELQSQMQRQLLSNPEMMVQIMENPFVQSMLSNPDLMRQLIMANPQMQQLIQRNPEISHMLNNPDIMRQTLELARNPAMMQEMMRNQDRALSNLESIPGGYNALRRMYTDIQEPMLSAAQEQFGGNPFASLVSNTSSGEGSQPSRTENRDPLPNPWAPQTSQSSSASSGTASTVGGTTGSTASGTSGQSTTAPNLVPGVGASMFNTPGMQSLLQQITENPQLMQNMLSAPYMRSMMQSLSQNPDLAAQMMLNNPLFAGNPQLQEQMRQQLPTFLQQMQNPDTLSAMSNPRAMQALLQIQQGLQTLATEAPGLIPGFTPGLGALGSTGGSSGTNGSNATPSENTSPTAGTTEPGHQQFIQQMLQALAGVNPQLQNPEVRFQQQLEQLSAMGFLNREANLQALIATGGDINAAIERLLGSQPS
UniProt Q8N2K1: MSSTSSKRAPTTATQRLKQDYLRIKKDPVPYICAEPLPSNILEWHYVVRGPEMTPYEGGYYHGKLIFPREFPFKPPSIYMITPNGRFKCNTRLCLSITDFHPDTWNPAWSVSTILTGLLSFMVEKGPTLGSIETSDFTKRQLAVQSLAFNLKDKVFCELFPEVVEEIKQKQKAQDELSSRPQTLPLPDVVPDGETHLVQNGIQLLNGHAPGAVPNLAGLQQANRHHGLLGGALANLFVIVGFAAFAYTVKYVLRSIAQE

Key:
Experiment in all cases: log2 fold change, soluble protein after heating vs DMSO (PISA); higher = thermal stabilisation; K562 lysate, 10 uM; active = over 0.2 and 3.5 SD of the protein, either way, in both replicates (recomputed)
erlotinib = compound: C#Cc1cccc(Nc2ncnc3cc(OCCOC)c(OCCOC)cc23)c1 [erlotinib]
In short: (§1)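 A 30 min treatment with 10 μM compound was applied to crude K562 extract at 1 mg/mL protein in PBS pH 7.4 with 1 mM MgCl2. Heating for 3 min spanned 48°C-58°C, after which aliquots were pooled, adjusted to 0.5% NP-40 at 4°C and spun at 21,000xg for 90 min. TMTpro 16plex LC-MS/MS of the supernatant, with channel sums equalised, gave values recorded as log-two fold change in thermal stability against solvent controls, from duplicates.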

[1] = compound: C/C(=N\NC(=O)C1=CC(=CC=C1)S(=O)(=O)N2CCOCC2)/C3=C(C=CC(=C3)Cl)O
In short: as §1

[2] = compound: C1=CC(=CC=C1C2=NC3=C(N2)C=C(C=C3)C(=O)N)OC4=CC=C(C=C4)Cl
In short: as §1

[3] = compound: C1=CC2=C(C=CC(=C2)/C=C\3/C(=O)NC(=NCC4=CC=CS4)S3)N=C1
In short: as §1

[4] = compound: C1=CC2=NC=CN=C2C=C1/C=C/3\C(=O)NC(=O)S3
In short: as §1

[5] = compound: C1=CC=C(C=C1)C2=NC(=C(N2)C3=CC=NC=C3)C4=CC(=C(C=C4)Cl)O
In short: as §1

[6] = compound: C1=CC=C2C(=C1)C3=NNC4=CC=CC(=C43)C2=O
In short: as §1

[7] = compound: C1CCN(C1)C(=O)NC2=CC=CC(=C2)NC3=NC=C(C(=N3)NCCC4=CN=CN4)Br
In short: as §1

[8] = compound: C1CN(CCC1(CC2=CC=C(C=C2)Cl)N)C3=NC=NC4=C3C=CN4
In short: as §1

IRAK-1-4 Inhibitor I = compound: C1COCCN1CCN2C3=CC=CC=C3N=C2NC(=O)C4=CC(=CC=C4)[N+](=O)[O-] [IRAK-1-4 Inhibitor I]
In short: as §1

ibrutinib = compound: C=CC(=O)N1CCC[C@@H](n2nc(-c3ccc(Oc4ccccc4)cc3)c3c(N)ncnc32)C1 [ibrutinib]
In short: as §1

[9] = compound: CC(=O)c1cnc2ccc(-c3cc(Cl)c(O)c(Cl)c3)nc2c1N[C@H]1CC[C@H](CN(C)C)CC1
In short: as §1

ralimetinib = compound: CC(C)(C)Cn1c(N)nc2ccc(-c3[nH]c(C(C)(C)C)nc3-c3ccc(F)cc3)nc21 [ralimetinib]
In short: as §1

[10] = compound: CC(C)(O)CC(=O)NCCn1ccc2ncnc(Nc3ccc(Oc4cccc(C(F)(F)F)c4)c(Cl)c3)c21
In short: as §1

[11] = compound: CC(C)C1=C2N=C(C=C(N2N=C1)NCC3=CC=CC=C3)NCCCCCCN
In short: as §1

[12] = compound: CC1=C(C(CC(=O)N1)C2=CC=C(C=C2)C(F)(F)F)C(=O)NC3=C(C=C4C(=C3)C=NN4)F
In short: as §1

[13] = compound: CC1=C(C2=C(C=C1)C(=O)C3=CC=CC=C3N2CCCN)C
In short: as §1

[14] = compound: CC1=C(C=C(C=C1)NC(=O)C2=CC(=CC=C2)C(C)(C)C#N)NC3=CC4=C(C=C3)N=CN(C4=O)C
In short: as §1

[15] = compound: CC1=C(C=C(C=C1)NC(=O)C2=CC(=CC=C2)N(C)C)NC(=O)C3=CC=C(C=C3)O
In short: as §1

[16] = compound: CC1=CC=C(C=C1)SC2=C3C=C(SC3=CN=C2)C(=O)N
In short: as §1

Measured: log2 fold change

TUBB6 (UniProt Q9BUF5)
inactive: erlotinib 0.039 | [1] 0.051 | [2] -0.002 | [3] 0.017 | [4] 0 | [5] 0.005 | [6] 0.009 | [7] -0.013 | [8] 0.057 | IRAK-1-4 Inhibitor I -0.003 | ibrutinib -0.005 | [9] 0.012 | ralimetinib 0.023 | [10] -0.038 | [11] 0.027 | [12] 0.012 | [13] 0.025 | [14] -0.024 | [15] -0.009 | [16] 0.025

UBXN1 (UniProt Q04323)
inactive: erlotinib -0.056 | [1] -0.046 | [2] -0.016 | [3] -0.008 | [4] 0.041 | [5] 0.006 | [6] 0.002 | [7] 0 | [8] -0.005 | IRAK-1-4 Inhibitor I 0.004 | ibrutinib -0.007 | [9] -0.006 | ralimetinib 0.031 | [10] -0.028 | [11] -0.014 | [12] -0.033 | [13] -0.013 | [14] -0.006 | [15] 0.032 | [16] -0.023

TXNDC17 (UniProt Q9BRA2)
inactive: erlotinib 0.031 | [1] -0.072 | [2] 0.016 | [3] -0.005 | [4] -0.042 | [5] 0.047 | [6] 0.068 | [7] 0.035 | [8] 0.018 | IRAK-1-4 Inhibitor I 0.006 | ibrutinib -0.055 | [9] 0.001 | ralimetinib -0.019 | [10] -0.017 | [11] 0.019 | [12] -0.013 | [13] 0.005 | [14] -0.001 | [15] -0.023 | [16] 0.009

TUBB4B (UniProt P68371)
inactive: erlotinib 0.008 | [1] -0.059 | [2] 0.019 | [3] -0.018 | [4] 0.005 | [5] -0.024 | [6] -0.011 | [7] 0.019 | [8] 0.03 | IRAK-1-4 Inhibitor I 0.04 | ibrutinib -0.012 | [9] 0.029 | ralimetinib 0.026 | [10] 0.029 | [11] 0.02 | [12] 0.011 | [13] 0.022 | [14] -0.05 | [15] 0.035 | [16] 0.018

UBAC1 (UniProt Q9BSL1)
inactive: erlotinib -0.012 | [1] -0.084 | [2] -0.011 | [3] -0.005 | [4] 0.002 | [5] -0.002 | [6] -0.002 | [7] -0.014 | [8] -0.007 | IRAK-1-4 Inhibitor I 0.004 | ibrutinib 0.028 | [9] 0 | ralimetinib 0.009 | [10] -0.017 | [11] 0 | [12] 0.002 | [13] 0.01 | [14] 0.023 | [15] 0.032 | [16] -0.024

UBR5 (UniProt O95071)
inactive: erlotinib 0.005 | [1] -0.029 | [2] -0.024 | [3] -0.002 | [4] -0.012 | [5] -0.013 | [6] -0.033 | [7] -0.001 | [8] 0.007 | IRAK-1-4 Inhibitor I 0.001 | ibrutinib -0.001 | [9] -0.005 | ralimetinib 0.01 | [10] -0.028 | [11] -0.005 | [12] 0.004 | [13] -0.011 | [14] 0.013 | [15] 0.016 | [16] 0.018

UBE2L3 isoform 3 (UniProt P68036)
inactive: erlotinib -0.004 | [1] 0.003 | [2] 0.023 | [3] -0.047 | [4] 0.017 | [5] -0.002 | [6] 0 | [7] 0.036 | [8] 0.012 | IRAK-1-4 Inhibitor I 0.007 | ibrutinib -0.065 | [9] 0.019 | ralimetinib -0.019 | [10] 0.008 | [11] 0.017 | [12] -0.038 | [13] -0.002 | [14] 0 | [15] -0.007 | [16] 0.007

TXN2 (UniProt Q99757)
inactive: erlotinib -0.009 | [1] 0.019 | [2] -0.022 | [3] 0.014 | [4] -0.116 | [5] 0.008 | [6] 0.025 | [7] -0.066 | [8] 0.028 | IRAK-1-4 Inhibitor I -0.018 | ibrutinib -0.053 | [9] -0.053 | ralimetinib -0.011 | [10] 0.008 | [11] 0.031 | [12] 0.003 | [13] 0.053 | [14] 0.024 | [15] -0.021 | [16] -0.026

UCHL5 isoform 3 (UniProt Q9Y5K5)
inactive: erlotinib -0.015 | [1] -0.012 | [2] 0.015 | [3] -0.018 | [4] 0.01 | [5] -0.005 | [6] 0.001 | [7] 0 | [8] -0.014 | IRAK-1-4 Inhibitor I -0.018 | ibrutinib 0 | [9] -0.001 | ralimetinib 0.01 | [10] -0.008 | [11] 0.015 | [12] 0.014 | [13] 0.011 | [14] -0.029 | [15] 0.004 | [16] 0.012

U2SURP (UniProt O15042)
inactive: erlotinib -0.004 | [1] -0.018 | [2] 0.03 | [3] -0.013 | [4] -0.031 | [5] 0.006 | [6] -0.014 | [7] -0.023 | [8] 0.041 | IRAK-1-4 Inhibitor I -0.013 | ibrutinib -0.032 | [9] 0.012 | ralimetinib 0.021 | [10] 0.001 | [11] -0.022 | [12] -0.001 | [13] -0.018 | [14] -0.065 | [15] 0.014 | [16] -0.016

UBQLN1 isoform 2 (UniProt Q9UMX0)
inactive: erlotinib -0.004 | [1] 0.183 | [2] -0.185 | [3] 0.123 | [5] 0 | [6] -0.081 | [7] 0.031 | [8] 0.164 | IRAK-1-4 Inhibitor I -0.027 | [9] 0 | ralimetinib -0.051 | [10] 0.018 | [11] -0.32 | [13] -0.015 | [14] -0.024 | [15] -0.013 | [16] 0.094

UBE2J2 (UniProt Q8N2K1)
inactive: erlotinib 0.027 | [1] 0 | [2] 0.059 | [3] 0 | [4] -0.109 | [5] -0.049 | [6] -0.051 | [7] -0.029 | [8] -0.033 | IRAK-1-4 Inhibitor I 0.038 | ibrutinib -0.006 | ralimetinib 0.088 | [10] 0.039 | [11] -0.007 | [12] 0.052 | [13] 0.151 | [14] -0.094 | [15] 0.01
